No constants are given. Whether binding was seen depends on the method and setting. In cells and extracts the contact can be indirect. Some entries that bind do so weakly or less than the wild type.

Amino acid sequences for entries named in this document (tags omitted).
UniProt O95563: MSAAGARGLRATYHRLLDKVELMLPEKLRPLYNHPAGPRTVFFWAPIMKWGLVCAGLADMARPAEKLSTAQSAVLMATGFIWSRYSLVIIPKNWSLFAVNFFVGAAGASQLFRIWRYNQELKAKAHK

The values below come from paper PMC10426103.

For assay [1], the target named is mitochondrial pyruvate carrier 2 (MPC2) (human (endogenous in HEK-293T)) (UniProt O95563). Briefly: co-IP; 293T cells harvested with IP lysis buffer; reacted with immobilized antibodies (GCN5L1, MPC2 and IgG) at 4 °C overnight, Pierce Co-IP Kit; eluted with reducing SDS lysis buffer; immunoblot with anti-MPC2 and anti-GCN5L1. (In general: A western blot detects proteins with antibodies after separation by electrophoresis.)

Assay [2] concerns the target Flag-MPC2 (UniProt O95563). Briefly: co-IP; 293T cells transfected with Flag-GCN5L1 or Flag-MPC2, lysed with IP lysis buffer, incubated at 4 °C overnight with anti-Flag M2 agarose; washed in PBS; eluted with 1x sample buffer; immunoblot with anti-GCN5L1 or anti-MPC2.

B1: amino acid synthesis 5-like 1 (GCN5L1) (protein, UniProt P78537 1-153)
chain: MAPGSRGERSSFRSRRGPGVPSPQPDVTMLSRLLKEHQAKQNERKELQEKRRREAITAATCLTEALVDHLNVGVAQAYMNQRKLDHEVKTLQVQAAQFAKQTGQWIGMVENFNQALKEIGDVENWARSIELDMRTIATALEYVYKGQLQSAPS
In the case of B1, the binding result in assay [1] and in assay [2] was “binds” in each case.
